Results published in the supplement of paper PMC8728848.
The other results are listed elsewhere or left out.

How the values were obtained:
Assay in all cases: glycan array binding signal (z-score within array); higher = stronger binding
Conditions in all cases: glycan notation: IUPAC condensed, linker removed
[1] = molecular target: Gal(b1-4)GlcNAc(b1-2)Man(a1-6)[Man(a1-3)]Man(b1-4)GlcNAc(b1-4)GlcNAc
Summary of the method: (§1)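 Negative Z-scores can be read as non-binding. The Z-score is calculated within each array and then averaged across arrays of one protein sequence at different concentrations or buffers and across linkers. Arrays, 3228 in all, were curated from the Consortium for Functional Glycomics database and kept only where the protein sequence was available.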

[2] = molecular target: Gal(b1-4)GlcNAc(b1-2)[Gal(b1-4)GlcNAc(b1-4)]Man(a1-3)[Gal(b1-4)GlcNAc(b1-2)Man(a1-6)]Man(b1-4)GlcNAc(b1-4)GlcNAc
Summary of the method: as §1

[3] = molecular target: Gal(b1-4)GlcNAc(b1-2)[Gal(b1-4)GlcNAc(b1-4)]Man(a1-3)[Gal(b1-4)GlcNAc(b1-2)[Gal(b1-4)GlcNAc(b1-6)]Man(a1-6)]Man(b1-4)GlcNAc(b1-4)GlcNAc
Summary of the method: as §1

[4] = molecular target: Gal(b1-4)GlcNAc(b1-2)[Gal(b1-4)GlcNAc(b1-4)]Man(a1-3)[GlcNAc(b1-4)][Gal(b1-4)GlcNAc(b1-2)Man(a1-6)]Man(b1-4)GlcNAc(b1-4)GlcNAc
Summary of the method: as §1

[5] = molecular target: Gal(b1-4)GlcNAc(b1-2)[Gal(b1-4)GlcNAc(b1-4)]Man(a1-3)[GlcNAc(b1-4)][Gal(b1-4)GlcNAc(b1-2)[Gal(b1-4)GlcNAc(b1-6)]Man(a1-6)]Man(b1-4)GlcNAc(b1-4)GlcNAc
Summary of the method: as §1

[6] = molecular target: Gal(b1-4)GlcNAc(b1-2)[Gal(b1-4)GlcNAc(b1-6)]Man(a1-6)[Gal(b1-4)GlcNAc(b1-2)Man(a1-3)]Man(b1-4)GlcNAc(b1-4)GlcNAc
Summary of the method: as §1

[7] = molecular target: Gal(b1-4)GlcNAc(b1-2)[Gal(b1-4)GlcNAc(b1-6)]Man(a1-6)[Gal(b1-4)GlcNAc(b1-2)Man(a1-3)]Man(b1-4)GlcNAc(b1-4)[Fuc(a1-6)]GlcNAc
Summary of the method: as §1

[8] = molecular target: Gal(b1-4)GlcNAc(b1-2)[Gal(b1-4)GlcNAc(b1-6)]Man(a1-6)[GlcNAc(b1-4)][Gal(b1-4)GlcNAc(b1-2)Man(a1-3)]Man(b1-4)GlcNAc(b1-4)GlcNAc
Summary of the method: as §1

[9] = molecular target: Gal(b1-4)GlcNAc(b1-2)[Gal(b1-4)GlcNAc(b1-6)]Man(a1-6)[GlcNAc(b1-4)][Gal(b1-4)GlcNAc(b1-2)[Gal(b1-4)GlcNAc(b1-4)]Man(a1-3)]Man(b1-4)GlcNAc(b1-4)[Fuc(a1-6)]GlcNAc
Summary of the method: as §1

[10] = molecular target: Gal(b1-4)GlcNAc(b1-3)Gal(b1-3)GalNAc
Summary of the method: as §1

[11] = molecular target: Gal(b1-4)GlcNAc(b1-3)Gal(b1-3)GlcNAc
Summary of the method: as §1

[12] = molecular target: Gal(b1-4)GlcNAc(b1-3)Gal(b1-4)Glc
Summary of the method: as §1

[13] = molecular target: Gal(b1-4)GlcNAc(b1-3)Gal(b1-4)GlcNAc
Summary of the method: as §1

[14] = molecular target: Gal(b1-4)GlcNAc(b1-3)Gal(b1-4)GlcNAc(b1-2)Man(a1-3)[Gal(b1-4)GlcNAc(b1-3)Gal(b1-4)GlcNAc(b1-2)Man(a1-6)]Man(b1-4)GlcNAc(b1-4)GlcNAc
Summary of the method: as §1

[15] = molecular target: Gal(b1-4)GlcNAc(b1-3)Gal(b1-4)GlcNAc(b1-2)Man(a1-3)[Gal(b1-4)GlcNAc(b1-3)Gal(b1-4)GlcNAc(b1-2)Man(a1-6)]Man(b1-4)GlcNAc(b1-4)[Fuc(a1-6)]GlcNAc
Summary of the method: as §1

[16] = molecular target: Gal(b1-4)GlcNAc(b1-3)Gal(b1-4)GlcNAc(b1-2)[Gal(b1-4)GlcNAc(b1-3)Gal(b1-4)GlcNAc(b1-6)]Man(a1-6)[Gal(b1-4)GlcNAc(b1-3)Gal(b1-4)GlcNAc(b1-2)Man(a1-3)]Man(b1-4)GlcNAc(b1-4)GlcNAc
Summary of the method: as §1

[17] = molecular target: Gal(b1-4)GlcNAc(b1-3)Gal(b1-4)GlcNAc(b1-2)[Gal(b1-4)GlcNAc(b1-3)Gal(b1-4)GlcNAc(b1-6)]Man(a1-6)[Gal(b1-4)GlcNAc(b1-3)Gal(b1-4)GlcNAc(b1-2)Man(a1-3)]Man(b1-4)GlcNAc(b1-4)[Fuc(a1-6)]GlcNAc
Summary of the method: as §1

[18] = molecular target: Gal(b1-4)GlcNAc(b1-3)Gal(b1-4)GlcNAc(b1-3)Gal(b1-4)GlcNAc
Summary of the method: as §1

[19] = molecular target: Gal(b1-4)GlcNAc(b1-3)Gal(b1-4)GlcNAc(b1-3)Gal(b1-4)GlcNAc(b1-2)Man(a1-3)[Gal(b1-4)GlcNAc(b1-3)Gal(b1-4)GlcNAc(b1-3)Gal(b1-4)GlcNAc(b1-2)Man(a1-6)]Man(b1-4)GlcNAc(b1-4)GlcNAc
Summary of the method: as §1

[20] = molecular target: Gal(b1-4)GlcNAc(b1-3)Gal(b1-4)GlcNAc(b1-3)Gal(b1-4)GlcNAc(b1-2)Man(a1-3)[Gal(b1-4)GlcNAc(b1-3)Gal(b1-4)GlcNAc(b1-3)Gal(b1-4)GlcNAc(b1-2)Man(a1-6)]Man(b1-4)GlcNAc(b1-4)[Fuc(a1-6)]GlcNAc
Summary of the method: as §1

[21] = molecular target: Gal(b1-4)GlcNAc(b1-3)Gal(b1-4)GlcNAc(b1-3)Gal(b1-4)GlcNAc(b1-2)[Gal(b1-4)GlcNAc(b1-3)Gal(b1-4)GlcNAc(b1-3)Gal(b1-4)GlcNAc(b1-6)]Man(a1-6)[Gal(b1-4)GlcNAc(b1-3)Gal(b1-4)GlcNAc(b1-3)Gal(b1-4)GlcNAc(b1-2)Man(a1-3)]Man(b1-4)GlcNAc(b1-4)[Fuc(a1-6)]GlcNAc
Summary of the method: as §1

[22] = molecular target: Gal(b1-4)GlcNAc(b1-3)Gal(b1-4)GlcNAc(b1-3)Gal(b1-4)GlcNAc(b1-3)Gal(b1-4)GlcNAc(b1-2)Man(a1-3)[Gal(b1-4)GlcNAc(b1-3)Gal(b1-4)GlcNAc(b1-3)Gal(b1-4)GlcNAc(b1-3)Gal(b1-4)GlcNAc(b1-2)Man(a1-6)]Man(b1-4)GlcNAc(b1-4)GlcNAc
Summary of the method: as §1

B1: BabA (Helicobacter pylori), O52269_HELPY (protein)
chain: AEDDGFYMSAGYQIGEAAQMVKNTKGIQELSDNYENLSNLLTRYSTLNTLIKLSADPSAVNAARENLGASAKNLIGDTKNSPAYQAVLLAINAAVGFWNVVGYVTQCGGNANGQKSTSSTTIFNNEPGYRSTSITCSLNGHMPGYYGPMSIENFKKLNEAYQILQTALKNGLPALKENNGTVNVTYSYTCSGEGNDNCSLQTTGVTNQNNGTKTETQTIDGKSVTTTISSKVVDSQ
Question: How did the “glycan array binding signal (z-score)” value [1] turn out when B1 was run?
Answer: Its value is -0.172.

Question: What about the “glycan array binding signal (z-score)” value [2] of the same binder?
Answer: The value was -0.315.

Question: What about the “glycan array binding signal (z-score)” value [3] of the same binder?
Answer: Its value is -0.482.

Question: What about the “glycan array binding signal (z-score)” value [4] of the same binder?
Answer: The value was -0.482.

Question: What about the “glycan array binding signal (z-score)” value [5] of the same binder?
Answer: Its value is -0.364.

Question: What about the “glycan array binding signal (z-score)” value [6] of the same binder?
Answer: The value was -0.201.

Question: And the “glycan array binding signal (z-score)” value [7]?
Answer: The value was 0.172.

Question: What about the “glycan array binding signal (z-score)” value [8] of the same binder?
Answer: The value was -0.546.

Question: What about the “glycan array binding signal (z-score)” value [9] of the same binder?
Answer: The value was -0.337.

Question: And the “glycan array binding signal (z-score)” value [10]?
Answer: The value was -0.736.

Question: What about the “glycan array binding signal (z-score)” value [11] of the same binder?
Answer: The value was -0.491.

Question: And the “glycan array binding signal (z-score)” value [12]?
Answer: Its value is -0.535.

Question: And the “glycan array binding signal (z-score)” value [13]?
Answer: Its value is -0.923.

Question: What about the “glycan array binding signal (z-score)” value [14] of the same binder?
Answer: The value was 4.08.

Question: What about the “glycan array binding signal (z-score)” value [15] of the same binder?
Answer: The value was 0.899.

Question: What about the “glycan array binding signal (z-score)” value [16] of the same binder?
Answer: The value was 1.39.

Question: What about the “glycan array binding signal (z-score)” value [17] of the same binder?
Answer: Its value is 1.53.

Question: What about the “glycan array binding signal (z-score)” value [18] of the same binder?
Answer: Its value is -1.02.

Question: And the “glycan array binding signal (z-score)” value [19]?
Answer: The value was 4.

Question: What about the “glycan array binding signal (z-score)” value [20] of the same binder?
Answer: The value was 2.03.

Question: And the “glycan array binding signal (z-score)” value [21]?
Answer: Its value is 2.31.

Question: And the “glycan array binding signal (z-score)” value [22]?
Answer: Its value is 1.26.
